The list shows only some results of the screen, not a fair sample: it gathers tests that were run many times, whatever their T/C, doses with no T/C, and many T/C values between a quarter and a half above the control. Other doses and runs of a compound stand elsewhere. T/C gives the treated animals as a percentage of the vehicle group. Schedule codes are those of the source, read here as Q, the interval in days (D) or hours (H), X, the number of doses. Some T/C values carry the count of animals alive at the toxicity check (mostly the fifth day); where none is given, no animal had died by that day. Some values lie below zero, which means that the treated tumours became smaller. Some entries hold several experiments; the results are listed from low to high. Some entries give survivors of the animals treated and no T/C: the source files T/C as zero there, which appears to mark a toxic dose or a test without result, not a measured value. Counts of survivors are from the toxicity check (mostly the fifth day) where no day follows; animals may have died later. Some structures stand for samples that the source files as different forms (salt, stereo form or complex); doses refer to the form tested.
Test system: nude mice, LX-1 lung xenograft intrarenal, tumor weight T/C
Experiment: NCI In Vivo Anticancer Drug Screen. Data for tumor model Human Lung LX-1 Xenograft (intrarenal inoculation) in NU/NU Swiss (nude) mice
Conditions: T/C endpoint: mean tumor weight change, higher T/C = larger tumour; for T/C: evaluated on day 11
Outline: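 In vivo, transplantable tumor; compound vs vehicle arms; tumor size measured; value = T/C.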

[1] = dose: 0.4 mg/kg/injection, schedule: Q01DX010 (sc), vehicle: saline
[2] = dose: 0.8 mg/kg/injection, schedule: Q01DX010 (sc), vehicle: saline
[3] = dose: 25.0 mg/kg/injection, schedule: Q01DX010 (sc), vehicle: saline
[4] = dose: 50.0 mg/kg/injection, schedule: Q01DX010 (sc), vehicle: saline
[5] = dose: 2.0 mg/kg/injection, schedule: Q01DX010 (ip), vehicle: water
[6] = dose: 4.0 mg/kg/injection, schedule: Q01DX010 (sc), vehicle: water
[7] = dose: 6.0 mg/kg/injection, schedule: Q04DX003 (sc), vehicle: water
[8] = dose: 12.0 mg/kg/injection, schedule: Q04DX003 (sc), vehicle: water

SMILES: [N-]=[N+]=CC(=O)CCC(N)C(=O)O (configuration not stated)
- survivor count (dose: 0.2 mg/kg/injection, schedule: Q01DX010 (sc), vehicle: saline): 1 of 3 on day 11
- T/C [1]: 83 [2 of 3 alive on day 11] and 92 % of control
- survivor count [1]: 1 of 3 on day 11 and 3 of 6 on day 11
- survivor count (dose: 0.75 mg/kg/injection, schedule: Q01DX010 (sc), vehicle: saline): 1 of 3 on day 11
- T/C [2]: 40 % of control [2 of 3 alive on day 11]
- survivor count [2]: 0 of 3 on day 11, 1 of 3 on day 11, 3 of 6 on day 11
- survivor count (dose: 1.5 mg/kg/injection, schedule: Q01DX010 (sc), vehicle: saline): 0 of 3 on day 11
- survivor count (dose: 1.6 mg/kg/injection, schedule: Q01DX010 (sc), vehicle: saline): 0 of 3 on day 11 and 0 of 6 on day 11
- survivor count (dose: 3.0 mg/kg/injection, schedule: Q01DX010 (sc), vehicle: saline): 0 of 3 on day 11
- survivor count (dose: 3.2 mg/kg/injection, schedule: Q01DX010 (sc), vehicle: saline): 0 of 3 on day 11 and 0 of 6 on day 11
- survivor count (dose: 6.0 mg/kg/injection, schedule: Q01DX010 (sc), vehicle: saline): 0 of 3 on day 11
- survivor count (dose: 6.25 mg/kg/injection, schedule: Q01DX010 (sc), vehicle: saline): 0 of 3 on day 11
- survivor count (dose: 6.4 mg/kg/injection, schedule: Q01DX010 (sc), vehicle: saline): 0 of 3 on day 11
- survivor count (dose: 12.5 mg/kg/injection, schedule: Q01DX010 (sc), vehicle: saline): 0 of 3 on day 11
- survivor count [3]: 0 of 3 on day 11
- survivor count [4]: 0 of 2 on day 11 and 0 of 3 on day 11
- survivor count (dose: 100.0 mg/kg/injection, schedule: Q01DX010 (sc), vehicle: saline): 0 of 3 on day 11

SMILES: Cc1c2ccccc2cc2cccc[n+]12
- T/C (dose: 30.0 mg/kg/injection, schedule: Q04DX003 (sc), vehicle: saline): 142 % of control
- survivor count (dose: 60.0 mg/kg/injection, schedule: Q04DX003 (sc), vehicle: saline): 0 of 6 on day 11
- survivor count (dose: 120.0 mg/kg/injection, schedule: Q04DX003 (sc), vehicle: saline): 0 of 6 on day 11
- survivor count (dose: 240.0 mg/kg/injection, schedule: Q04DX003 (sc), vehicle: saline): 0 of 6 on day 11

SMILES: CN=C(NC#N)NCCSCc1nc[nH]c1C
- survivor count (dose: 2400.0 mg/kg/injection, schedule: Q04DX003 (sc), vehicle: Klucel (hydroxypropylcellulose) (HPC)): 2 of 6 on day 11

SMILES: COc1cc(NCc2ccc3nc(N)nc(N)c3c2C)cc(OC)c1OC
- survivor count (dose: 10.0 mg/kg/injection, schedule: Q01DX010 (sc), vehicle: sodium bicarbonate): 0 of 2 on day 11
- survivor count (dose: 300.0 mg/kg/injection, schedule: Q04DX003 (sc), vehicle: water): 2 of 6 on day 11
- survivor count (dose: 600.0 mg/kg/injection, schedule: Q04DX003 (sc), vehicle: water): 0 of 6 on day 11

SMILES: NC(Cc1ccc(N(CCCl)CCCl)cc1)C(=O)O (configuration not stated)
- survivor count (dose: 80.0 mg/kg/injection, schedule: Q04DX003 (sc), vehicle: Klucel (hydroxypropylcellulose) (HPC)): 0 of 6 on day 11

SMILES: Cc1c(N)nc(C(CC(N)=O)NCC(N)C(N)=O)nc1C(=O)NC(C(=O)NC(C)C(O)C(C)C(=O)NC(C(=O)NCCc1nc(-c2nc(C(=O)NCCCNC(C)c3ccccc3)cs2)cs1)C(C)O)C(OC1OC(CO)C(O)C(O)C1OC1OC(CO)C(O)C(OC(N)=O)C1O)c1cnc[nH]1 (configuration not stated)
- survivor count (dose: 64.0 mg/kg/injection, schedule: Q01DX010 (sc), vehicle: saline): 0 of 3 on day 11

SMILES: COc1cccc2c1C(=O)c1c(O)c3c(c(O)c1C2=O)C[C@@](O)(C(=O)CO)C[C@@H]3OC1CC(N)C(O)C(C)O1 (some centres not stated)
- T/C (dose: 0.5 mg/kg/injection, schedule: Q01DX010 (ip), vehicle: water): 30, 57, 58 [2 of 2 alive on day 11], 70 % of control
- T/C (dose: 0.5 mg/kg/injection, schedule: Q01DX010 (sc), vehicle: water): 62, 80, 82, 120 % of control [2 of 2 alive on day 11]
- T/C (dose: 1.0 mg/kg/injection, schedule: Q01DX010 (ip), vehicle: water): 18 [2 of 3 alive on day 11], 24, 36 [2 of 2 alive on day 11], 67 % of control [2 of 3 alive on day 11]
- T/C (dose: 1.0 mg/kg/injection, schedule: Q01DX010 (sc), vehicle: water): 34, 52 [2 of 2 alive on day 11], 72 [2 of 3 alive on day 11], 113 % of control
- T/C [5]: 35 % of control [2 of 3 alive on day 11]
- survivor count [5]: 0 of 3 on day 11 and 1 of 3 on day 11
- T/C (dose: 2.0 mg/kg/injection, schedule: Q01DX010 (sc), vehicle: water): -63, 10 [2 of 2 alive on day 11], 13, 40, 44, 46, 46 [2 of 3 alive on day 11], 74, 80, 171 % of control
- survivor count (dose: 4.0 mg/kg/injection, schedule: Q01DX010 (ip), vehicle: water): 0 of 2 on day 11 and 0 of 3 on day 11
- T/C [6]: -80 [2 of 3 alive on day 11], 8, 23, 26, 27, 62, 66 % of control
- survivor count [6]: 0 of 3 on day 11, 1 of 3 on day 11, 1 of 2 on day 11
- T/C (dose: 4.0 mg/kg/injection, schedule: Q04DX003 (sc), vehicle: water): 145 % of control
- T/C [7]: 2, 4, 30 [2 of 3 alive on day 11], 80 % of control
- survivor count [7]: 1 of 3 on day 11
- T/C [8]: -56 and 2 % of control [2 of 2 alive on day 11]
- survivor count [8]: 0 of 3 on day 11 and 1 of 3 on day 11
- survivor count (dose: 18.0 mg/kg/injection, schedule: Q04DX003 (sc), vehicle: saline): 1 of 3 on day 11
- survivor count (dose: 36.0 mg/kg/injection, schedule: Q04DX003 (sc), vehicle: saline): 0 of 3 on day 11

SMILES: CCC/C=C/C=C/C(=O)OC1/C(=C/C(=O)OC)CC2CC(C(C)O)OC(=O)CC(O)CC3CC(OC(C)=O)C(C)(C)C(O)(CC4C/C(=C/C(=O)OC)CC(/C=C/C(C)(C)C1(O)O2)O4)O3 (configuration not stated)
- survivor count (dose: 4.0 mg/kg/injection, schedule: Q04DX003 (sc), vehicle: saline + alcohol): 2 of 6 on day 11

SMILES: C=C1C(=O)C23[C@H](O)C1CC[C@H]2[C@]12COC3(O)[C@@H](O)[C@@H]1C(C)(C)CC[C@@H]2O
- survivor count (dose: 75.0 mg/kg/injection, schedule: Q04DX003 (sc), vehicle: Klucel (hydroxypropylcellulose) (HPC)): 0 of 6 on day 11
- survivor count (dose: 150.0 mg/kg/injection, schedule: Q04DX003 (sc), vehicle: Klucel (hydroxypropylcellulose) (HPC)): 0 of 6 on day 11

SMILES: CCCCNC(C)[C@]1(O)Cc2c(O)c3c(c(O)c2[C@@H](OC2CC(N)C(O)C(C)O2)C1)C(=O)c1c(OC)cccc1C3=O (some centres not stated)
- survivor count [3]: 0 of 3 on day 11
- survivor count [4]: 0 of 3 on day 11

SMILES: CC[C@](O)(C(=O)O)c1cc2n(c(=O)c1CO)Cc1cc3ccccc3nc1-2
- survivor count (dose: 32.0 mg/kg/injection, schedule: Q04DX003 (sc), vehicle: saline): 1 of 6 on day 11
- survivor count (dose: 64.0 mg/kg/injection, schedule: Q04DX003 (sc), vehicle: saline): 0 of 6 on day 11
- survivor count (dose: 100.0 mg/kg/injection, schedule: Q04DX003 (sc), vehicle: saline): 0 of 6 on day 11
- survivor count (dose: 128.0 mg/kg/injection, schedule: Q04DX003 (sc), vehicle: saline): 0 of 6 on day 11
- survivor count (dose: 200.0 mg/kg/injection, schedule: Q04DX003 (sc), vehicle: saline): 0 of 6 on day 11
- survivor count (dose: 250.0 mg/kg/injection, schedule: Q04DX003 (sc), vehicle: saline): 0 of 6 on day 11
- survivor count (dose: 400.0 mg/kg/injection, schedule: Q04DX003 (sc), vehicle: saline): 0 of 6 on day 11
- survivor count (dose: 800.0 mg/kg/injection, schedule: Q04DX003 (sc), vehicle: saline): 0 of 6 on day 11

Source: PubChem BioAssay AID264 (DTP/NCI, 2004)
